This is one part of the list. Calls are pooled over several reports, among them a noisy single-well screen.
Tests used:
Conditions in all cases: stereoisomer not certain
O1020 = test system: T1, O1020
T1 sequence (whole entry): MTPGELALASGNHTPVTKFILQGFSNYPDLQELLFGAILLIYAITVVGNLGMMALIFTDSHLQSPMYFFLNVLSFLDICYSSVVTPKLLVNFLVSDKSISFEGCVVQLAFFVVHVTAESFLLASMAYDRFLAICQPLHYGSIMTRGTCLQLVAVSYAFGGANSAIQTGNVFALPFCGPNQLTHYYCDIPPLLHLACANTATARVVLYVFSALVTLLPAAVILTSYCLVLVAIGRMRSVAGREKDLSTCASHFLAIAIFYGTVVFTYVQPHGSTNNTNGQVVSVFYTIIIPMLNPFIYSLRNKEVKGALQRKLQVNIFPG
How it was run: (§1)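 Assay methods differ from source to source, frequently being transient luciferase assays in mammalian cell lines. For each receptor–molecule pair, the label responsive (active) applies when the original authors judged the measured signal statistically different from baseline, and non-responsive (inactive) applies otherwise.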

O1052 = test system: T2, O1052
T2 sequence (whole entry): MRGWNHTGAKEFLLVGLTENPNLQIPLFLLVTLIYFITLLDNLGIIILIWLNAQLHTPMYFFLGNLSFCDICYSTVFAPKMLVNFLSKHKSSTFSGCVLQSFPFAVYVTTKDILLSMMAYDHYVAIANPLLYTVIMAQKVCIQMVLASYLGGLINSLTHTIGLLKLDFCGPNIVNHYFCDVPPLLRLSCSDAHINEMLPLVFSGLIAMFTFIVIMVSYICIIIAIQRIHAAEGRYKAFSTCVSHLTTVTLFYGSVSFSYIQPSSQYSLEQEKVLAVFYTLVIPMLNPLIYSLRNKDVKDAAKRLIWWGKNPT
How it was run: as §1

O10A2 = test system: T3, O10A2
T3 sequence (whole entry): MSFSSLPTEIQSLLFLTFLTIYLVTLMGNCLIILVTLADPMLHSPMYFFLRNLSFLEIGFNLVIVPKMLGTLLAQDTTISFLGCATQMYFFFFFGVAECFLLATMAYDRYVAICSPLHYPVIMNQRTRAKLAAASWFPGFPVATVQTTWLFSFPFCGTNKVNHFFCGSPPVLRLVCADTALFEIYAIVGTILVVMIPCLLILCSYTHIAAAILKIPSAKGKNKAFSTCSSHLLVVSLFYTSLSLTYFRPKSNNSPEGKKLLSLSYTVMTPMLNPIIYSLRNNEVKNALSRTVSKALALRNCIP
How it was run: as §1

E1BBG9 I277T = test system: E1BBG9 I277T
How it was run: as §1

E1BBG9 L105I I277T = test system: E1BBG9 L105I I277T
How it was run: as §1

E1BBG9 L105I V205I I277T = test system: E1BBG9 L105I V205I I277T
How it was run: as §1

E1BBG9 L105I V205I = test system: E1BBG9 L105I V205I
How it was run: as §1

E1BBG9 L105I = test system: E1BBG9 L105I
How it was run: as §1

E1BBG9 V205I I277T = test system: E1BBG9 V205I I277T
How it was run: as §1

E1BBG9 V205I = test system: E1BBG9 V205I
How it was run: as §1

With `C=CCc1ccc(OC)c(OC)c1` the “odorant receptor agonist call” value (O1020) was “inactive”, the “odorant receptor agonist call” value (O1052) was “inactive” and the “odorant receptor agonist call” value (O10A2) was “inactive”.
For `CCCCCCCCOC(C)=O`, the “odorant receptor agonist call” value (O1020) was “inactive”, the “odorant receptor agonist call” value (O1052) was “inactive” and the “odorant receptor agonist call” value (O10A2) was “inactive”.
In the case of `C=CC(C)(O)CCC=C(C)C` (centres undefined), the “odorant receptor agonist call” value (O1020) is reported as “inactive”, the “odorant receptor agonist call” value (O1052) is reported as “inactive” and the “odorant receptor agonist call” value (O10A2) is reported as “inactive”.
In the case of `COc1cc(C=O)ccc1O`, the “odorant receptor agonist call” value (O1020) is reported as “inactive”, the “odorant receptor agonist call” value (O1052) is reported as “inactive” and the “odorant receptor agonist call” value (O10A2) is reported as “inactive”.
With `CC1=NC(C)SC1C` (centres undefined) the “odorant receptor agonist call” value (O1020) was “inactive”, the “odorant receptor agonist call” value (O1052) was “inactive” and the “odorant receptor agonist call” value (O10A2) was “inactive”.
With `CC(C)C(=O)O` the “odorant receptor agonist call” value (O1020) was “inactive”, the “odorant receptor agonist call” value (O1052) was “inactive” and the “odorant receptor agonist call” value (O10A2) was “inactive”.
`C=C(C)C1CC=C(C)C(=O)C1` (centres undefined) was tested, and the “odorant receptor agonist call” value (E1BBG9 I277T) was “active”, the “odorant receptor agonist call” value (E1BBG9 L105I I277T) was “active” and the “odorant receptor agonist call” value (E1BBG9 L105I V205I I277T) was “active”. The “odorant receptor agonist call” value (E1BBG9 L105I V205I) was “active”, the “odorant receptor agonist call” value (E1BBG9 L105I) was “active” and the “odorant receptor agonist call” value (E1BBG9 V205I I277T) was “active”. The “odorant receptor agonist call” value (E1BBG9 V205I) was “active”.
With `O=C1CCCCCCCCCCCCCCO1` the “odorant receptor agonist call” value (O1020) was “inactive”, the “odorant receptor agonist call” value (O1052) was “inactive” and the “odorant receptor agonist call” value (O10A2) was “inactive”.
In the case of `CC(C)=CCCC(C)=CC=O`, the “odorant receptor agonist call” value (O1020) is reported as “inactive”, the “odorant receptor agonist call” value (O1052) is reported as “inactive” and the “odorant receptor agonist call” value (O10A2) is reported as “inactive”.
`CCCCCC(=O)O` was tested, and the “odorant receptor agonist call” value (O1020) was “inactive”, the “odorant receptor agonist call” value (O1052) was “inactive” and the “odorant receptor agonist call” value (O10A2) was “inactive”.
In the case of `CCCCCCCCCC=O`, the “odorant receptor agonist call” value (O1020) is reported as “inactive”, the “odorant receptor agonist call” value (O1052) is reported as “inactive” and the “odorant receptor agonist call” value (O10A2) is reported as “inactive”.
For `CC(C)CCC(=O)O`, the “odorant receptor agonist call” value (O1020) was “inactive”, the “odorant receptor agonist call” value (O1052) was “inactive” and the “odorant receptor agonist call” value (O10A2) was “inactive”.
`CC(=O)OCC=C(C)CCC=C(C)C` was tested, and the “odorant receptor agonist call” value (O1020) was “active”, the “odorant receptor agonist call” value (O1052) was “inactive” and the “odorant receptor agonist call” value (O10A2) was “inactive”.
For `CC1COCc2cc3c(cc21)C(C)(C)C(C)C3(C)C` (centres undefined), the “odorant receptor agonist call” value (O1020) was “active”, the “odorant receptor agonist call” value (O1052) was “inactive” and the “odorant receptor agonist call” value (O10A2) was “inactive”.
`CC(C)(C)c1ccc(CCC=O)cc1` was tested, and the “odorant receptor agonist call” value (O1020) was “inactive”, the “odorant receptor agonist call” value (O1052) was “inactive” and the “odorant receptor agonist call” value (O10A2) was “inactive”.
For `CC(=O)OC1CC2CCC1(C)C2(C)C` (centres undefined), the “odorant receptor agonist call” value (O1020) was “inactive”, the “odorant receptor agonist call” value (O1052) was “inactive” and the “odorant receptor agonist call” value (O10A2) was “inactive”.
With `CC12C=CCC1C1CCC3=CC(=O)CCC3(C)C1CC2` (centres undefined) the “odorant receptor agonist call” value (O1020) was “inactive”, the “odorant receptor agonist call” value (O1052) was “inactive” and the “odorant receptor agonist call” value (O10A2) was “inactive”.
In the case of `C=CCSCC=C`, the “odorant receptor agonist call” value (O1020) is reported as “inactive”, the “odorant receptor agonist call” value (O1052) is reported as “inactive” and the “odorant receptor agonist call” value (O10A2) is reported as “inactive”.
With `CC12CCC(CC1)C(C)(C)O2` the “odorant receptor agonist call” value (O1020) was “inactive”, the “odorant receptor agonist call” value (O1052) was “inactive” and the “odorant receptor agonist call” value (O10A2) was “inactive”.
In the case of `COC(=O)c1ccccc1`, the “odorant receptor agonist call” value (O1020) is reported as “inactive”, the “odorant receptor agonist call” value (O1052) is reported as “inactive” and the “odorant receptor agonist call” value (O10A2) is reported as “inactive”.
`COC(=O)c1ccccc1O` was tested, and the “odorant receptor agonist call” value (O1020) was “inactive”, the “odorant receptor agonist call” value (O1052) was “inactive” and the “odorant receptor agonist call” value (O10A2) was “inactive”.
With `CCCCCCCC=CC=O` the “odorant receptor agonist call” value (O1020) was “inactive”, the “odorant receptor agonist call” value (O1052) was “inactive” and the “odorant receptor agonist call” value (O10A2) was “inactive”.
`CC(=O)c1ccccc1` was tested, and the “odorant receptor agonist call” value (O1020) was “inactive”, the “odorant receptor agonist call” value (O1052) was “inactive” and the “odorant receptor agonist call” value (O10A2) was “inactive”.
`CCC=CCCO` was tested, and the “odorant receptor agonist call” value (O1020) was “inactive”, the “odorant receptor agonist call” value (O1052) was “inactive” and the “odorant receptor agonist call” value (O10A2) was “inactive”.
`CC(C)C=O` was tested, and the “odorant receptor agonist call” value (O1020) was “inactive”, the “odorant receptor agonist call” value (O1052) was “inactive” and the “odorant receptor agonist call” value (O10A2) was “inactive”.
